Measured values as given in the supplement of paper PMC10849652.
Some of the results follow.

Protein sequences, listed by entry. Tags and fused reporters are not part of them. Lines headed by an entry give the natural chain unless they say otherwise; changes in a name come on top.
UniProt P84090, whole entry, looked up: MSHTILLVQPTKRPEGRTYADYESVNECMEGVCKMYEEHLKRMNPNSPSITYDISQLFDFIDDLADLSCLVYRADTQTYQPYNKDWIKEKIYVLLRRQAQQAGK
UniProt Q9UI10, whole entry, looked up: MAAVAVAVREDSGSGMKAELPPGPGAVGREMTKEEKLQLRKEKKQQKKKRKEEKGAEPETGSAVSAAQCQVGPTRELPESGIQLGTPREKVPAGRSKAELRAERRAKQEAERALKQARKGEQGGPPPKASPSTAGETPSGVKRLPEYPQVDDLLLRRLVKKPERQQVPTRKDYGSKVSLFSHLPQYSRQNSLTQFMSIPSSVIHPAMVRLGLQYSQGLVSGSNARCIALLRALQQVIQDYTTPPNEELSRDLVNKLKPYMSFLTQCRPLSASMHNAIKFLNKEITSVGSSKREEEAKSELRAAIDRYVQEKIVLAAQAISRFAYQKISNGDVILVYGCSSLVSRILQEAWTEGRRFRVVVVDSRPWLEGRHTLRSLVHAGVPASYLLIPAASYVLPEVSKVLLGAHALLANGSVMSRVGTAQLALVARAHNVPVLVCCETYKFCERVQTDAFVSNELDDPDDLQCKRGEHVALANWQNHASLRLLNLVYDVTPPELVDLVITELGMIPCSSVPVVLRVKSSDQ
UniProt Q9BV81: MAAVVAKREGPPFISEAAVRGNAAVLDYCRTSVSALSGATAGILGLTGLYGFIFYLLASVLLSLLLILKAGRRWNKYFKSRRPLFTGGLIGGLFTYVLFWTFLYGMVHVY
UniProt Q96RQ1: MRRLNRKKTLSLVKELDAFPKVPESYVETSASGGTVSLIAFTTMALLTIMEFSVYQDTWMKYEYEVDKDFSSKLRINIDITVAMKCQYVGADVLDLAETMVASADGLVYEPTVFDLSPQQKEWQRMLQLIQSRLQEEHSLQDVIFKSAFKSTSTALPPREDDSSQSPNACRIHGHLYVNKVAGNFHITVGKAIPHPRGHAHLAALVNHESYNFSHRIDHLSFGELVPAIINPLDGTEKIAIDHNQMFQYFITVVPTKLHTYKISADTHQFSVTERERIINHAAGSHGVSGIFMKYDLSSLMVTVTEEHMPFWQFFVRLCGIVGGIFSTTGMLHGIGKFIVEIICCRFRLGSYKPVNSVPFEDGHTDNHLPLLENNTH
UniProt Q8IV48: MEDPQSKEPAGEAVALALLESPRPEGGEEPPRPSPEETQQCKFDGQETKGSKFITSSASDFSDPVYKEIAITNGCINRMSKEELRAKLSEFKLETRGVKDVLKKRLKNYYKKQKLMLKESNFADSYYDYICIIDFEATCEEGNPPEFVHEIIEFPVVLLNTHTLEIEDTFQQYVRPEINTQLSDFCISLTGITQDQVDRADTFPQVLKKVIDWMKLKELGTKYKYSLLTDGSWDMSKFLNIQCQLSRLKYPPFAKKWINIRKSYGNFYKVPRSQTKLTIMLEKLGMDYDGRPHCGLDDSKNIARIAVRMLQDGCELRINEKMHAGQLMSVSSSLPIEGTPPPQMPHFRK
UniProt Q8TE68: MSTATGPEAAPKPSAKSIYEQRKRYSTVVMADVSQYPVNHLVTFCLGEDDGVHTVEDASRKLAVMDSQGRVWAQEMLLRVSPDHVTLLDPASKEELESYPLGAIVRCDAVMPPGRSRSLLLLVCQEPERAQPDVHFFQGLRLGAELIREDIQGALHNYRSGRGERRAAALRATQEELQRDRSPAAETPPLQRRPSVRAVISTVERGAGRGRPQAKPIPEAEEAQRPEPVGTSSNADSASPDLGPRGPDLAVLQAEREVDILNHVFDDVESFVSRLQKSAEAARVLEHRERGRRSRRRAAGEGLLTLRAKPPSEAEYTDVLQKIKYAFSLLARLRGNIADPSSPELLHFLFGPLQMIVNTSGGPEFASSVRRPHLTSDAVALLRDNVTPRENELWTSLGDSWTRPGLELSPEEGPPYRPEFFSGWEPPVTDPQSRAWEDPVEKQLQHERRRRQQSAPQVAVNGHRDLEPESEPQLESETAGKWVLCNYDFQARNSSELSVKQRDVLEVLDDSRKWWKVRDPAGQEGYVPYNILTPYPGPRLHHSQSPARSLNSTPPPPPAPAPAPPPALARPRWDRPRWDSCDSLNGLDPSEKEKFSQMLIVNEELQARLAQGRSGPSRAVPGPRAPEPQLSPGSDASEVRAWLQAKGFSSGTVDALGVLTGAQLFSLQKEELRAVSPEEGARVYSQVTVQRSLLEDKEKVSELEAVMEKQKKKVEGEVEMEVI
UniProt Q52LR7, whole entry, looked up: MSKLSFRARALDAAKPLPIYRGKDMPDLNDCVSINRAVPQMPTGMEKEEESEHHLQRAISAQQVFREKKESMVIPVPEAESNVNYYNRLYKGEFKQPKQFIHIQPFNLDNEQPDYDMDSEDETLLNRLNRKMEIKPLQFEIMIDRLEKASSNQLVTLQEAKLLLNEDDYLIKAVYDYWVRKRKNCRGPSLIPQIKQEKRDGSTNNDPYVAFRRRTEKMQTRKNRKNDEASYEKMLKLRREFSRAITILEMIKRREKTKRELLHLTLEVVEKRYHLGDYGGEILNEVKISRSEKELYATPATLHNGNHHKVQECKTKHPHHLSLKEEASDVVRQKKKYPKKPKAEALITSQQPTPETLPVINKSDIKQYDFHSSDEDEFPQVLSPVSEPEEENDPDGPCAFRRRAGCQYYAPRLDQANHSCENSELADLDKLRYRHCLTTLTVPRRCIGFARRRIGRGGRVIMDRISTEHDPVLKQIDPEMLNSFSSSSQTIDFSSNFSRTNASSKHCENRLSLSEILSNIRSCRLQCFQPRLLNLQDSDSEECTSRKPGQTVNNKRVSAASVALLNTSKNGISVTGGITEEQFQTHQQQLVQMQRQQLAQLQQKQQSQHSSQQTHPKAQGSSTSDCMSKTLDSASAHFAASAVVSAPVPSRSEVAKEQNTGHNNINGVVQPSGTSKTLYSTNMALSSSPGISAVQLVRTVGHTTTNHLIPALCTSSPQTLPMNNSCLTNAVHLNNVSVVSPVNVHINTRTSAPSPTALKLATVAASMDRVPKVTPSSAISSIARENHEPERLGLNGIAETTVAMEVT
UniProt O15372, whole entry, looked up: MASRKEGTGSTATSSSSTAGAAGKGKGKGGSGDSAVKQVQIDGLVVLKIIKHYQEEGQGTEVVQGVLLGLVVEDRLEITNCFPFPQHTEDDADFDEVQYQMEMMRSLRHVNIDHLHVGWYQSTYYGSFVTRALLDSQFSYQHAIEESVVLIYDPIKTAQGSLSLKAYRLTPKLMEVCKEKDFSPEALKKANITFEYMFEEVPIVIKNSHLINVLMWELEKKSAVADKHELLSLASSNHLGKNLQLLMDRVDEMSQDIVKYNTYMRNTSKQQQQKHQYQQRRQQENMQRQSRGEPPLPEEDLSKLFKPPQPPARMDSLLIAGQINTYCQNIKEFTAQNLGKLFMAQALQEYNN
UniProt P55199: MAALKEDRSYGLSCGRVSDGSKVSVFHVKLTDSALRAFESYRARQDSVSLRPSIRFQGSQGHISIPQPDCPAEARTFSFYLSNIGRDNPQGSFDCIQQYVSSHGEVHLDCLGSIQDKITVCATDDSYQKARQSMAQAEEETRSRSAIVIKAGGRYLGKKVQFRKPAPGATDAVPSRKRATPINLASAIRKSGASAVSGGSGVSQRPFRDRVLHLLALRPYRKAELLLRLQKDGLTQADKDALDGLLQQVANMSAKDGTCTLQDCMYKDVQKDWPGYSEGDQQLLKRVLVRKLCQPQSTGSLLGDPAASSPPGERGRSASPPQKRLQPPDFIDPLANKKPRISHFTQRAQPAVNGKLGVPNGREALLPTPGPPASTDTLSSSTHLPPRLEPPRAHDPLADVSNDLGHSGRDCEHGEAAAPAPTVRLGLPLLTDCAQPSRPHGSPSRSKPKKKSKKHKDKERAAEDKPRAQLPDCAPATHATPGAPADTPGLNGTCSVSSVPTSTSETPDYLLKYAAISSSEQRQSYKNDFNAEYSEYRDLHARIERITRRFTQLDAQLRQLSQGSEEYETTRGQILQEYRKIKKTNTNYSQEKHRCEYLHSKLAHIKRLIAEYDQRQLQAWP
UniProt Q13542: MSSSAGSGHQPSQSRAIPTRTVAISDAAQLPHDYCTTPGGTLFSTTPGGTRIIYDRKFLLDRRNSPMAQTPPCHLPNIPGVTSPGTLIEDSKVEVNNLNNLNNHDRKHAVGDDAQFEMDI
UniProt Q9HC35: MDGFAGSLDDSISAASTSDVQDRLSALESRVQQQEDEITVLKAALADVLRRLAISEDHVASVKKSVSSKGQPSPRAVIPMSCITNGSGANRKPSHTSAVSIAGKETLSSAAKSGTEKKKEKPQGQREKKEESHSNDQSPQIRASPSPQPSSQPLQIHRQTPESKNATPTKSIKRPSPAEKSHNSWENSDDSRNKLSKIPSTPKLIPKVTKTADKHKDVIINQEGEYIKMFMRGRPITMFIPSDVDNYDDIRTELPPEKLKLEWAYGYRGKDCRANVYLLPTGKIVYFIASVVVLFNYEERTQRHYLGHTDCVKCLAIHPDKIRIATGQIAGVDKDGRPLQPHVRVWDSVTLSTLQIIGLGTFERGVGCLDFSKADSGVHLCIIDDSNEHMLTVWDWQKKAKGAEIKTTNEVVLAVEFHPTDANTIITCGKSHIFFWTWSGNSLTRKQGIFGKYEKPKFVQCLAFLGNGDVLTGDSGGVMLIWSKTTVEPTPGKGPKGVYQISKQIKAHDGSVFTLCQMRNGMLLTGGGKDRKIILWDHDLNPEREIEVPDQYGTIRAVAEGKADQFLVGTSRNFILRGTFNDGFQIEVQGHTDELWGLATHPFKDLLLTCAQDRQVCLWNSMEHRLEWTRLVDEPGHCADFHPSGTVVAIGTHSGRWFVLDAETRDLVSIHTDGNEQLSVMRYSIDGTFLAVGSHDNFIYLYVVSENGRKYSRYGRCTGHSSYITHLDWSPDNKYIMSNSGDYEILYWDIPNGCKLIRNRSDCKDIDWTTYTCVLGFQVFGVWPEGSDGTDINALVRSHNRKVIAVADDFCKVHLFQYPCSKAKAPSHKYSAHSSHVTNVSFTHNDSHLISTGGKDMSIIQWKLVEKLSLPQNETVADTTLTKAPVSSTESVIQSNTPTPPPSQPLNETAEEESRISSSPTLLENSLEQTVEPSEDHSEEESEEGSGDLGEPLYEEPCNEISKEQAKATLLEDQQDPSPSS
UniProt O43491, whole entry, looked up: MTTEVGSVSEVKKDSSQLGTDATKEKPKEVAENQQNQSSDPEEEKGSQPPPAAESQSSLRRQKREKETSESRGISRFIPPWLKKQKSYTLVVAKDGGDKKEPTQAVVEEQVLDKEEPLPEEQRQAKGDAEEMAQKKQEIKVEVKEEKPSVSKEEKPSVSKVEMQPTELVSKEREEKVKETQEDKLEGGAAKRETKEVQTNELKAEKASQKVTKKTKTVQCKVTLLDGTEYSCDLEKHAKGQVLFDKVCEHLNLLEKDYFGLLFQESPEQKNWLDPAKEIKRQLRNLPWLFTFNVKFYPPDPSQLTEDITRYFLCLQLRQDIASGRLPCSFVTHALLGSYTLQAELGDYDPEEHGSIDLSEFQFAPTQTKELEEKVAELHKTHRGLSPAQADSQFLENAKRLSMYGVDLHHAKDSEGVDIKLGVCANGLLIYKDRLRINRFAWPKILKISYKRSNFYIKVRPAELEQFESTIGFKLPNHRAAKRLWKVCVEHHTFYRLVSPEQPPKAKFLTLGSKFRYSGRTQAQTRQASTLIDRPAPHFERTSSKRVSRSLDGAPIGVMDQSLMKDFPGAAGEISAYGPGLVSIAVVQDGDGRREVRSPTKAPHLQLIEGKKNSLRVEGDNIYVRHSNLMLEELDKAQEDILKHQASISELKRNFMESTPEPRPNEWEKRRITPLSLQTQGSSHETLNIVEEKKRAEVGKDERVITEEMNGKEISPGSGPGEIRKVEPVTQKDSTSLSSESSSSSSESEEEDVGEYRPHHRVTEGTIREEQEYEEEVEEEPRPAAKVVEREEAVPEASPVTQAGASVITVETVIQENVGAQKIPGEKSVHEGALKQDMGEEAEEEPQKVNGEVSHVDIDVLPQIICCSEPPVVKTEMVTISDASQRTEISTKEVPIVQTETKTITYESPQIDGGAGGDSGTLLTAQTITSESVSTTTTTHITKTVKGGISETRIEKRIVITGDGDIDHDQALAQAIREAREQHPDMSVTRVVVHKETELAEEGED
UniProt Q5J8M3, whole entry, looked up: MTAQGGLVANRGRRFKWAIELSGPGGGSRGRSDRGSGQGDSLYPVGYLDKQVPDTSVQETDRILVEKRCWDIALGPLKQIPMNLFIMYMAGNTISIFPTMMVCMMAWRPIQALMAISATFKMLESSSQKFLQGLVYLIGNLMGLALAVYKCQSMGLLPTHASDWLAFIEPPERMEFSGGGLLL

Each target was assayed with Cc1sc2c(c1C)C(c1ccc(Cl)cc1)=N[C@@H](CC(=O)OC(C)(C)C)c1nnc(C)n1-2 (assay: log2 fold change, soluble protein after heating vs DMSO (PISA); higher = thermal stabilisation; K562 lysate, 10 uM; active = over 0.2 and 3.5 SD of the protein, either way, in both replicates (recomputed)).
In short: (§1)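 K562 pellets were dounce-homogenised in PBS pH 7.4 with 1 mM MgCl2, and the crude extract at 1 mg/mL protein was treated with 10 μM compound for 30 min. Aliquots were heated for 3 min across 48°C-58°C, pooled, and brought to 0.5% NP-40 at 4°C; soluble protein was the supernatant after 21,000xg for 90 min. Soluble protein was quantified by TMTpro 16plex LC-MS/MS with channel sums equalised, and reported as log2 fold change in thermal stability against DMSO controls, with values from duplicates.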

Target | log2 fold change
EMC2 (UniProt Q15006) | inactive: 0.019
ERH (UniProt P84090) | inactive: 0.001
EIF2B4 (UniProt Q9UI10) | inactive: -0.224
ERAP1 isoform 2 (UniProt Q9NZ08) | inactive: 0.054
ELF1 (UniProt P32519) | inactive: 0.023
EMC6 (UniProt Q9BV81) | inactive: -0.013
EIF4H isoform 2 (UniProt Q15056) | inactive: 0.132
ERGIC2 (UniProt Q96RQ1) | inactive: 0.233
ELOB (UniProt Q15370) | inactive: 0.005
ERI1 (UniProt Q8IV48) | inactive: -0.015
EPB41L3 (UniProt Q9Y2J2) | inactive: 0.056
EIF3E (UniProt P60228) | inactive: 0.045
EIF2B4 isoform 2 (UniProt Q9UI10) | inactive: -0.007
ENSA isoform 3 (UniProt O43768) | inactive: -0.008
ELP1 (UniProt O95163) | inactive: -0.03
EIF2AK2 (UniProt P19525) | inactive: 0.216
EPS8L1 (UniProt Q8TE68) | inactive: 0.011

Target | log2 fold change
ERC1 (UniProt X6RLX0) | inactive: -0.042
ENO1, A0A2R8YEM5 | inactive: -0.028
EPC2 (UniProt Q52LR7) | inactive: 0.111
EMC3 (UniProt Q9P0I2) | inactive: -0.051
EIF3G (UniProt O75821) | inactive: -0.04
EIF3J (UniProt O75822) | inactive: 0
EPN2 (UniProt O95208) | inactive: -0.084
EIF3H (UniProt O15372) | inactive: -0.039
ELL (UniProt P55199) | inactive: -0.005
EIF4EBP2 (UniProt Q13542) | inactive: -0.259
EML4 (UniProt Q9HC35) | inactive: 0.001
EIF2S3 (UniProt P41091) | inactive: 0.029
EPB41L2 (UniProt O43491) | inactive: -0.007
EMC4 (UniProt Q5J8M3) | inactive: -0.063
EPN1 (UniProt Q9Y6I3) | inactive: 0
EPB41, A0A2R8Y783 | inactive: -0.131

Each target was assayed with c1ccc([C@@H]2C[C@H]2NC2CCNCC2)cc1 in the same assay as above.
In short: as §1

Target | log2 fold change
EMC2 (UniProt Q15006) | inactive: 0.113
ERH (UniProt P84090) | inactive: 0.034
ERAP1 isoform 2 (UniProt Q9NZ08) | inactive: 0.018
ELF1 (UniProt P32519) | inactive: 0.026
EMC6 (UniProt Q9BV81) | inactive: -0.037
ERGIC2 (UniProt Q96RQ1) | inactive: 0.069
ELOB (UniProt Q15370) | inactive: -0.044
ERI1 (UniProt Q8IV48) | inactive: 0.056
EPB41L3 (UniProt Q9Y2J2) | inactive: -0.027
EIF3E (UniProt P60228) | inactive: 0.094
EIF2B4 isoform 2 (UniProt Q9UI10) | inactive: 0.042
ENSA isoform 3 (UniProt O43768) | inactive: 0.02
ELP1 (UniProt O95163) | inactive: -0.051
EIF2AK2 (UniProt P19525) | inactive: 0.03
EPS8L1 (UniProt Q8TE68) | inactive: -0.074
ERC1 (UniProt X6RLX0) | inactive: 0.034
ENO1, A0A2R8YEM5 | inactive: -0.21
EMC3 (UniProt Q9P0I2) | inactive: 0.044
EIF3G (UniProt O75821) | inactive: 0.017
EIF3J (UniProt O75822) | inactive: -0.052
EPN2 (UniProt O95208) | inactive: -0.161
EIF3H (UniProt O15372) | inactive: -0.008
ELL (UniProt P55199) | inactive: 0.036
EIF4EBP2 (UniProt Q13542) | inactive: 0.135
EML4 (UniProt Q9HC35) | inactive: -0.019
EIF2S3 (UniProt P41091) | inactive: 0.089
EPB41L2 (UniProt O43491) | inactive: 0.032
EMC4 (UniProt Q5J8M3) | inactive: 0.044
EPN1 (UniProt Q9Y6I3) | inactive: -0.015
EPB41, A0A2R8Y783 | inactive: 0.033
